Drawing on paper PMC6821844, this text covers binding for 1 substance.

Results are given in words; binding and its absence hold for the method and conditions named. Some results given as binding are weak or reduced against the parent protein; the word gives no strength.

The target of the assay is partially oxidized DJ-1 (DJ-1Pox, Cys106-SO2-), C-terminal His-tagged (human) (UniProt Q99497). The assay is described as follows: dynamic light scattering; DJ-1 forms at 1 mg/ml, 22 °C, Zetasizer Nano ZS; read together with far-UV circular dichroism; both purified.

With “partially oxidized DJ-1 (DJ-1Pox, Cys106-SO2-), C-terminal His-tagged (from UniProt Q99497 1-189) (other; other documents disagree on this pair)”, the binding entry was “binds”.
